Test results from the supplement of paper PMC10735217.
Counter-ions that a name gives are not always drawn. Some of the results follow. Single values are uncertain here, since repeats match poorly.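 In a drug-repurposing library screen, luminescence reads luciferase driven by eight TEAD-binding elements, stably integrated into human kidney-derived cells. Compounds scoring over five robust Z scores above the plate mean are called hits.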

System: HEK293A TEAD-LUC reporter
Assay: TEAD-luciferase reporter activity (YAP activation), robust Z score vs plate; higher = stronger YAP/TEAD activation
Conditions: 24 h

Row | Structure (SMILES) | TEAD-luciferase reporter activity (compound concentration: 200 nM) | TEAD-luciferase reporter activity (compound concentration: 2 uM) | TEAD-luciferase reporter activity (compound concentration: 10 uM)
1 | N#Cc1ccc(OCCC2SC(=O)NC2=O)cc1 (stereo not drawn) | inactive: -0.822 | inactive: -0.31 | inactive: -0.786
2 | CC1(C(=O)O)CCC2(C)CCC3(C)C(=CC(=O)C4C5(C)CCC(O)C(C)(C)C5CCC43C)C2C1 (stereo not drawn) | inactive: -1.26 | inactive: -0.00366 | inactive: -0.442
3 | CC(C)CNCc1ccc(-c2ccccc2S(=O)(=O)N2CCCC2)cc1 | inactive: -1.53 | inactive: -0.211 | inactive: 0.837
4 | O=c1c2ccccc2nc2n1CCCCC2 | inactive: 1.65 | inactive: -0.512 | inactive: 0.954
5 | N=C(N)c1ccc(CCCCC(=O)N[C@@H](CC(=O)O)C(=O)N[C@@H](Cc2ccccc2)C(=O)O)cc1 | inactive: -1.32 | inactive: 0.831 | inactive: 2.08
6 | CO/N=C(/C(=O)N[C@@H]1C(=O)N2C(C(=O)OCOC(=O)C(C)(C)C)=C(/C=C/c3scnc3C)CS[C@H]12)c1csc(N)n1 [cefditoren pivoxil] | inactive: 0.52 | inactive: 0.306 | inactive: -0.679
7 | CCc1ncnc2ccc(CCc3cc(OC)ccc3OC)cc12 | inactive: 0.59 | inactive: -2.05 | inactive: -1.69
8 | CCCCCCCCCCCCCCCCCCOP(=O)([O-])OCC[N+]1(C)CCCCC1 | inactive: 0.358 | inactive: -0.807 | inactive: 0.354
9 | CCOC(=O)[C@@H](N)Cc1ccc(-c2cc(O[C@H](c3ccc(Cl)cc3-n3ccc(C)n3)C(F)(F)F)nc(N)n2)cc1 [Telotristat etiprate] | inactive: 0.68 | inactive: -1.31 | inactive: -3.9
10 | C/C=C/C/C=C/CCC(=O)[C@H]1O[C@H]1C(N)=O | inactive: -2.5 | inactive: -0.4 | inactive: -0.454
11 | O=Cc1cccc(N2CCN(C(=O)N3CCCCC3)CC2=O)c1 | inactive: -1.41 | – | inactive: 1.37
12 | OC[C@H]1O[C@@H](Oc2cc3c(O)cc(O)cc3[o+]c2-c2ccc(O)c(O)c2)[C@H](O[C@@H]2OC[C@@H](O)[C@H](O)[C@H]2O)[C@@H](O)[C@@H]1O [Cyanidin 3-sambubioside] | inactive: 0.427 | inactive: -0.136 | inactive: 0.331
13 | C[C@]12CCC(=O)C=C1CC[C@@H]1[C@@H]2[C@@H](O)C[C@@]2(C)[C@H]1CC[C@]2(O)C(=O)CS [Tixocortol] | inactive: 0.988 | inactive: 2.06 | inactive: -0.149
14 | CC(=O)O[C@@H](C[C@H](Cc1ccccc1)NC(=O)OCc1cccnc1)[C@H](Cc1ccccc1)NC(=O)[C@@H](NC(=O)OCc1ccccn1)C(C)C | inactive: 4.49 | inactive: -1.23 | inactive: -0.822
15 | Cc1nc2c(N)nc3cccnc3c2n1CC(C)C | inactive: 1.03 | inactive: -1.56 | inactive: 1.22
16 | O=c1nc(-c2ccccc2)c2cc(Cl)ccc2n1CC(F)(F)F [fluquazone] | inactive: 1.63 | inactive: -2.26 | inactive: 3.49
17 | Cc1c(Cc2ccc3ccccc3n2)c2cc(F)ccc2n1CC(=O)O | inactive: -2.44 | inactive: -1.13 | inactive: 1.61
18 | O=C(O)CCc1ccc(CCN2CCCN(c3nc4ccccc4n3Cc3ccc(F)cc3)CCC2)cc1 | inactive: -0.222 | inactive: -0.955 | inactive: 0.116
19 | CCC(C)N1CCC2(CC1)N=C1C(=C3NC(=O)/C(C)=C\C=C/[C@H](C)[C@H](O)[C@@H](C)C(O)[C@@H](C)[C@H](O)[C@H](C)[C@@H](OC)/C=C\O[C@@]4(C)Oc5c(C)c(O)c(c1c5C4=O)C3=O)N2 (stereo partly drawn) | inactive: -0.885 | inactive: 1.73 | active: 5.63
20 | CNCCON=c1c2ccccc2ccc2ccccc12 [demexiptiline] | inactive: -0.663 | inactive: 1.69 | inactive: -0.633
21 | CCCN1CCCC12Cc1ccccc1CN(C(C)=O)C2 (stereo not drawn) | inactive: -1.61 | – | inactive: -1.61
22 | COc1ccc2c(c1OCc1ccccc1)C[C@@H](C(=O)O)N(C(=O)C(c1ccccc1)c1ccccc1)C2 | inactive: 0.497 | inactive: -0.139 | inactive: -0.0928
23 | Nc1c(CC(=O)O)cccc1C(=O)c1ccc(Br)cc1 [bromfenac (low concentration), Bausch &amp] | inactive: -1.28 | – | inactive: -0.027
24 | Nc1c(CC(=O)O)cccc1C(=O)c1ccc(Br)cc1 [bromfenac (low concentration), Bausch &amp_:_ Lomb-1] | – | inactive: -1.64 | –
25 | C[C@@H]1NC(=O)[C@H](CC(=O)O)NC1=O [Aspartyl-alanyl-diketopiperazine] | inactive: 0.0692 | inactive: -0.952 | inactive: -0.0217
26 | Cc1cc(C(=O)NC2CC2)ccc1NC(=O)c1cnn(-c2ncccc2C(F)(F)F)c1C | inactive: 1.04 | inactive: -0.981 | inactive: -0.182
27 | CN(C)Cc1ccc(CSCCNC2=NS(=O)(=O)c3cscc32)o1 | inactive: -0.907 | inactive: -0.168 | inactive: -1.1

Shown in markdown: entries from further up.

| Row | Structure (SMILES) | TEAD-luciferase reporter activity (compound concentration: 200 nM) | TEAD-luciferase reporter activity (compound concentration: 2 uM) | TEAD-luciferase reporter activity (compound concentration: 10 uM) |
| --- | --- | --- | --- | --- |
| 2 | CC1(C(=O)O)CCC2(C)CCC3(C)C(=CC(=O)C4C5(C)CCC(O)C(C)(C)C5CCC43C)C2C1 (stereo not drawn) | inactive: -1.26 | inactive: -0.00366 | inactive: -0.442 |
| 3 | CC(C)CNCc1ccc(-c2ccccc2S(=O)(=O)N2CCCC2)cc1 | inactive: -1.53 | inactive: -0.211 | inactive: 0.837 |
| 5 | N=C(N)c1ccc(CCCCC(=O)N[C@@H](CC(=O)O)C(=O)N[C@@H](Cc2ccccc2)C(=O)O)cc1 | inactive: -1.32 | inactive: 0.831 | inactive: 2.08 |
| 8 | CCCCCCCCCCCCCCCCCCOP(=O)([O-])OCC[N+]1(C)CCCCC1 | inactive: 0.358 | inactive: -0.807 | inactive: 0.354 |
| 9 | CCOC(=O)[C@@H](N)Cc1ccc(-c2cc(O[C@H](c3ccc(Cl)cc3-n3ccc(C)n3)C(F)(F)F)nc(N)n2)cc1 [Telotristat etiprate] | inactive: 0.68 | inactive: -1.31 | inactive: -3.9 |
| 10 | C/C=C/C/C=C/CCC(=O)[C@H]1O[C@H]1C(N)=O | inactive: -2.5 | inactive: -0.4 | inactive: -0.454 |
| 11 | O=Cc1cccc(N2CCN(C(=O)N3CCCCC3)CC2=O)c1 | inactive: -1.41 | – | inactive: 1.37 |
| 12 | OC[C@H]1O[C@@H](Oc2cc3c(O)cc(O)cc3[o+]c2-c2ccc(O)c(O)c2)[C@H](O[C@@H]2OC[C@@H](O)[C@H](O)[C@H]2O)[C@@H](O)[C@@H]1O [Cyanidin 3-sambubioside] | inactive: 0.427 | inactive: -0.136 | inactive: 0.331 |
| 15 | Cc1nc2c(N)nc3cccnc3c2n1CC(C)C | inactive: 1.03 | inactive: -1.56 | inactive: 1.22 |
| 16 | O=c1nc(-c2ccccc2)c2cc(Cl)ccc2n1CC(F)(F)F [fluquazone] | inactive: 1.63 | inactive: -2.26 | inactive: 3.49 |
| 17 | Cc1c(Cc2ccc3ccccc3n2)c2cc(F)ccc2n1CC(=O)O | inactive: -2.44 | inactive: -1.13 | inactive: 1.61 |
| 18 | O=C(O)CCc1ccc(CCN2CCCN(c3nc4ccccc4n3Cc3ccc(F)cc3)CCC2)cc1 | inactive: -0.222 | inactive: -0.955 | inactive: 0.116 |
| 26 | Cc1cc(C(=O)NC2CC2)ccc1NC(=O)c1cnn(-c2ncccc2C(F)(F)F)c1C | inactive: 1.04 | inactive: -0.981 | inactive: -0.182 |
| 27 | CN(C)Cc1ccc(CSCCNC2=NS(=O)(=O)c3cscc32)o1 | inactive: -0.907 | inactive: -0.168 | inactive: -1.1 |

Remaining list, next part.

Row | Structure (SMILES) | TEAD-luciferase reporter activity (compound concentration: 200 nM) | TEAD-luciferase reporter activity (compound concentration: 2 uM) | TEAD-luciferase reporter activity (compound concentration: 10 uM)
28 | O=C1c2ccccc2C(=O)c2c1ccc(O)c2O | inactive: 0.194 | inactive: 0.226 | inactive: -0.941
29 | Oc1ccc(Cl)cc1Sc1cc(Cl)ccc1O | inactive: -1.23 | inactive: -0.731 | inactive: -0.56
30 | Cc1nc(C2CCCCC2)c(-c2ccc(S(N)(=O)=O)c(F)c2)o1 | inactive: -2.42 | inactive: 0.63 | inactive: 2.75
31 | CC(C)N1CCN(c2ccc(N3CCN(c4ccc(OC[C@H]5OC[C@](Cn6cncn6)(c6ccc(F)cc6F)O5)cc4)CC3)cc2)C1=O | inactive: -1.36 | inactive: 1.93 | inactive: 1.13
32 | Cc1cccc(Nc2ccc([N+](=O)[O-])cc2S(=O)(=O)NC(=O)NC(C)C)c1 | inactive: -0.82 | inactive: -1.44 | inactive: -0.106
33 | NCc1ccccc1Sc1ccccc1CO [bipenamol] | inactive: -0.696 | inactive: 1.89 | inactive: 0.706
34 | O=C(NCCN1CCN(c2ncccn2)CC1)C12CC3CC(CC(C3)C1)C2 [Adatanserin hydrochloride] | inactive: -0.0342 | inactive: -1.74 | inactive: -1.05
35 | Cc1cc(-n2cccc2)c(S(C)(=O)=O)cc1C(=O)N=C(N)N [Eniporide mesilate] | inactive: -0.101 | inactive: -0.912 | inactive: -1.67
36 | N[C@H](C(=O)O)c1ccc(CO)c(O)c1 [Forfenimex] | inactive: 0.105 | inactive: 0.926 | inactive: 0.512
37 | CC[C@@H](C)C[C@@H](C)CCCCCCCCC(=O)N[C@H]1C[C@@H](O)[C@@H](NCCN)NC(=O)[C@@H]2[C@@H](O)CCN2C(=O)[C@H]([C@H](O)CCN)NC(=O)[C@H]([C@H](O)[C@@H](O)c2ccc(O)cc2)NC(=O)[C@@H]2C[C@@H](O)CN2C(=O)[C@H]([C@@H](C)O)NC1=O [caspofungin acetate] | inactive: -1.02 | inactive: -1.57 | inactive: -0.853
38 | Nc1nc(N)c(-c2cccc(Cl)c2Cl)c(CF)n1 | inactive: -0.773 | inactive: -0.9 | inactive: -1.66
39 | COc1cccc(CC(=O)N2CCN(C(=O)c3ccc(Cl)cc3)CC2)c1 | inactive: -0.149 | inactive: -0.392 | inactive: 0.162
40 | O=C1c2ccccc2-c2c1c1ccccc1c(=O)n2CCNCCO [oracin] | inactive: 1.06 | inactive: 0.352 | inactive: -0.916
41 | O=C(O)[C@@H]1C[C@@H](C2CCCCC2)CN1C(=O)CP(=O)(O)CCCCc1ccccc1 [Fosinoprilat] | inactive: -2.71 | inactive: -0.183 | inactive: 2.4
42 | COc1cc2c(cc1N1C[C@@H](C)N[C@@H](C)C1)N(C(=O)c1ccc(-c3ccc(-c4noc(C)n4)cc3C)cc1)CC2 | inactive: 1.69 | inactive: -0.463 | inactive: 3.32
43 | CCOC(=O)[C@H](CC(C)C)N(C)S(=O)(=O)c1ccc(Cn2c(C)nc3cnccc32)cc1 [Lexipafant] | inactive: 0.261 | – | inactive: 0.481
44 | CCn1c(=O)c(N(C)C)nc2ccccc21 | inactive: -0.0445 | inactive: 0.837 | inactive: 0.25
45 | CC[C@H](C)[C@@H]1C(=O)N[C@H](C2Cc3ccccc3C2)C(=O)N1[C@@H](C(=O)N1CCOCC1)c1coc(C)n1 [retosiban] | inactive: -0.464 | inactive: 2.82 | inactive: -0.99
46 | CCC[C@H](C)Oc1nc(N)c2[nH]c(=O)n(CCCCCN3CCCCC3)c2n1 | inactive: 1.74 | inactive: -1.33 | inactive: -0.266
47 | c1ccc(Cn2c(N3CCNCC3)nc3ccccc32)cc1 [Lerisetron] | inactive: -0.814 | inactive: -0.168 | inactive: 0.333
48 | O=C(NNCS(=O)(=O)O)c1ccncc1 | inactive: -1.56 | inactive: -1.41 | inactive: 1.34
49 | FC(F)(F)COCC(F)(F)F | inactive: -0.852 | inactive: -1.25 | inactive: 0.271
50 | COc1ccccc1C(=O)N1CC(N(C)c2ccccc2C)C1 | inactive: 4.21 | – | inactive: -0.349
51 | O=C(c1ccccc1)N1CCC(C(=O)N2CCC(N3CCCC3=O)CC2)CC1 | inactive: -1.11 | – | inactive: 1.88
52 | CC(C)C[C@H](NC(=O)[C@@H](COC(C)(C)C)NC(=O)[C@H](Cc1ccc(O)cc1)NC(=O)[C@H](CO)NC(=O)[C@H](Cc1c[nH]c2ccccc12)NC(=O)[C@H](Cc1c[nH]cn1)NC(=O)[C@@H]1CCC(=O)N1)C(=O)N[C@@H](CCCNC(=N)N)C(=O)N1CCC[C@H]1C(=O)NNC(N)=O [Goserelin] | inactive: -1.49 | – | inactive: -0.0402
53 | CC(C)C[C@H](NC(=O)[C@@H](COC(C)(C)C)NC(=O)[C@H](Cc1ccc(O)cc1)NC(=O)[C@H](CO)NC(=O)[C@H](Cc1c[nH]c2ccccc12)NC(=O)[C@H](Cc1c[nH]cn1)NC(=O)[C@@H]1CCC(=O)N1)C(=O)N[C@@H](CCCNC(=N)N)C(=O)N1CCC[C@H]1C(=O)NNC(N)=O [goserelin] | – | inactive: -0.602 | –
